Source: patent US20240066057A1, “METHOD FOR TREATING PAIN USING VANADIUM COMPOUNDS” (HUNAN FANGSHENGTAI MEDICAL TECHNOLOGY CO., LTD, priority 2020, published 2024)
Some of these results come from one statement about several compounds together.

System: Kunming mice with CFA-induced inflammation
Assay: Von Frey test (50% paw withdrawal threshold) in CFA-induced inflammatory pain mouse model
Format: in vivo
Conditions: intraperitoneal injection
Method: 10 μL of complete Freund's adjuvant (CFA) was injected into the left hind foot of mice (♂ Kunming mice, 22 g to 40 g) to induce inflammation. 24 hours after the injection, a Von Frey test was performed to determine a pain threshold. That is, under the guidance of Dixon's Up-Down method, Von Frey fibers were used to induce the mechanical paw withdrawal of the mice, and data were collected and calculated to obtain their 50% paw withdrawal thresholds (paw withdrawal threshold or PWT for short, i.e. pain threshold). Mice were then divided into different groups, including a normal saline group, a positive control group, and a drug group, which were intraperitoneally injected with normal saline, an aspirin (acetylsalicylic acid, or ASA) solution and a solution of compound for testing respectively. A Von Frey test was then performed to monitor changes in pain threshold.
Mice were divided into three groups: a blank control group, an aspirin (ASA) group, and a drug group. In blank control group, the mice were given normal saline, deionized water or deionized water containing ≤5% DMSO at the same volume as that in the drug group. In ASA group, the mice were given the known analgesic drug ASA as the positive control for tested compounds. In drug group, the mice were given compounds for testing accordingly. Due attention was paid to observe whether the pain threshold rose, the period during which the rise was maintained and the magnitude of the rise, after the injection of a tested compound solution.

Measured: Onset time

CC(=O)Oc1ccccc1C(=O)O [Solution S, acetylsalicylic acid, reference compound]
15 to 30 min: Example 5, C 1.9 mg/kg (atomic mass of vanadium), S about 250 mg/kg | Example 7, B 0.97 mg/kg (atomic mass of vanadium), S about 250 mg/kg | Example 8, E 0.97 mg/kg (atomic mass of vanadium), ASA about 250 mg/kg | Example 9, F 0.97 mg/kg (atomic mass of vanadium), ASA about 250 mg/kg
